Laboratory results taken from patent US5116816A (Sandoz Ltd., priority 1987, dated 1992).

Assay: general procedure: solution-phase peptide synthesis; N-ethyl-N-(3-dimethylamino)propyl carbodiimide / 4-dimethylaminopyridine
Conditions: cyclisation step, on linear precursor

Substance: PEPTIDE1{[MeBmt].T.[Sar].[MeLeu].L.[MeLeu].A.[D-Hiv].[MeLeu].L.[MeVal]}$PEPTIDE1,PEPTIDE1,1:R1-11:R2$$$V2.0
- cyclisation yield: 89%

Strings that start with PEPTIDE1 are HELM notation: dots part the residues, brackets hold end groups and non-standard residues.
